According to the supplement of paper PMC4635364:
Structures can show the parent of a compound that is named as a salt. Some of the results follow. Single values are uncertain here, since repeats match poorly.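 ReNCell VM, a human fetal ventral-midbrain neural progenitor line, was differentiated without mitogens. Blinded raters scored images stained for doublecortin (early neurons) or tyrosine hydroxylase (dopaminergic neurons) against untreated wells (0 = no change). Scores were averaged across repeats and both raters, and compounds averaging 2 or more were selected as hits for retesting.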

Legend:
ReNCell VM [1] = assay: neuronal differentiation score (DCX+ cell fraction vs untreated, manual image score) (score (-3 to 3)); higher = more neuronal differentiation; settings: 2 uM, 2 weeks
ReNCell VM [2] = assay: dopaminergic neuron differentiation score (TH+ cell fraction vs untreated, manual image score) (score (0 to 3)); higher = more TH+ dopaminergic neuron differentiation; settings: 2 uM, 4 weeks, BDNF 10 ng/ml + GDNF 10 ng/ml

Fc1ccc(C(c2ccc(F)cc2)N2CCN(C/C=C/c3ccccc3)CC2)cc1 [Flunarizine dihydrochloride]
inactive: neuronal differentiation score (ReNCell VM [1]; library: LOPAC) -1 | neuronal differentiation score (ReNCell VM [1]; library: Prestwick) 0 | neuronal differentiation score (ReNCell VM [1]; library: Tocriscreen) 0 | dopaminergic neuron differentiation score (ReNCell VM [2]; library: LOPAC) 0 | dopaminergic neuron differentiation score (ReNCell VM [2]; library: Prestwick) 0 | dopaminergic neuron differentiation score (ReNCell VM [2]; library: Tocriscreen) 0

CC(=O)N1CCN(c2ccc(OCC3COC(Cn4ccnc4)(c4ccc(Cl)cc4Cl)O3)cc2)CC1 (stereo not given) [Ketoconazole]
inactive: neuronal differentiation score (ReNCell VM [1]; library: LOPAC) 0 | neuronal differentiation score (ReNCell VM [1]; library: Prestwick) 0 | neuronal differentiation score (ReNCell VM [1]; library: Tocriscreen) 0 | dopaminergic neuron differentiation score (ReNCell VM [2]; library: LOPAC) 0 | dopaminergic neuron differentiation score (ReNCell VM [2]; library: Prestwick) 0 | dopaminergic neuron differentiation score (ReNCell VM [2]; library: Tocriscreen) 0

COC(=O)C1=C(C)NC(C)=C(C(=O)OC)C1c1ccccc1[N+](=O)[O-] [Nifedipine]
inactive: neuronal differentiation score (ReNCell VM [1]; library: LOPAC) 0 | neuronal differentiation score (ReNCell VM [1]; library: Prestwick) 0 | neuronal differentiation score (ReNCell VM [1]; library: Tocriscreen) 0 | dopaminergic neuron differentiation score (ReNCell VM [2]; library: LOPAC) 0 | dopaminergic neuron differentiation score (ReNCell VM [2]; library: Prestwick) 0 | dopaminergic neuron differentiation score (ReNCell VM [2]; library: Tocriscreen) 0

CC(CCc1ccc(O)cc1)NCCc1ccc(O)c(O)c1 (stereo not given) [Dobutamine hydrochloride]
inactive: neuronal differentiation score (ReNCell VM [1]; library: LOPAC) 0 | neuronal differentiation score (ReNCell VM [1]; library: Prestwick) 0 | neuronal differentiation score (ReNCell VM [1]; library: Tocriscreen) 0 | dopaminergic neuron differentiation score (ReNCell VM [2]; library: LOPAC) 0 | dopaminergic neuron differentiation score (ReNCell VM [2]; library: Prestwick) 0 | dopaminergic neuron differentiation score (ReNCell VM [2]; library: Tocriscreen) 0

CC1(C)NC(=O)N(c2ccc([N+](=O)[O-])c(C(F)(F)F)c2)C1=O [Nilutamide]
inactive: neuronal differentiation score (ReNCell VM [1]; library: LOPAC) 0 | neuronal differentiation score (ReNCell VM [1]; library: Prestwick) 0 | neuronal differentiation score (ReNCell VM [1]; library: Tocriscreen) 0 | dopaminergic neuron differentiation score (ReNCell VM [2]; library: LOPAC) 0 | dopaminergic neuron differentiation score (ReNCell VM [2]; library: Prestwick) 0 | dopaminergic neuron differentiation score (ReNCell VM [2]; library: Tocriscreen) 0

CNCCC(Oc1ccccc1OC)c1ccccc1 (stereo not given) [Nisoxetine hydrochloride]
inactive: neuronal differentiation score (ReNCell VM [1]; library: LOPAC) 0 | neuronal differentiation score (ReNCell VM [1]; library: Prestwick) 0 | neuronal differentiation score (ReNCell VM [1]; library: Tocriscreen) 0 | dopaminergic neuron differentiation score (ReNCell VM [2]; library: LOPAC) 0 | dopaminergic neuron differentiation score (ReNCell VM [2]; library: Prestwick) 0 | dopaminergic neuron differentiation score (ReNCell VM [2]; library: Tocriscreen) 0

COc1cccc(-c2cc(=O)c3ccccc3o2)c1N
inactive: neuronal differentiation score (ReNCell VM [1]; library: LOPAC) 0 | neuronal differentiation score (ReNCell VM [1]; library: Tocriscreen) -1 | dopaminergic neuron differentiation score (ReNCell VM [2]; library: LOPAC) 1 | dopaminergic neuron differentiation score (ReNCell VM [2]; library: Tocriscreen) 0
